Patent EP3543697A1
No constants are given. Whether binding was seen depends on the method and setting.

Molecular target: BCR with a non-CLL-Subset 2 HC / a non-CLL-Subset 2 LC on TKO cells
Assay: FACS binding assay on TKO cells with non-CLL-BCR (Fig. 1E)

binding: no binding
B1: AVA-mAb01 (specific monoclonal antibody against CLL Subset-2 BCR) (antibody, V domains shown)
VH: QVQLQQSGPGLVQPSQSLSITCTVSGFSLTSYGIHWVRQSPGKGLEWLGVIWRGGGTDSNAAFMSRLSITKDNSKSQVFFKMNSLQADDTAIYYCARSRYDEEESMNYWGQGTSVTVSS
VL: QIVLTQSPASLSASVGETVTITCRASGNIHSYLAWYQQKQGKSPQLLVYNAKTLADGVPSRFSGSGSGTQYSLKINSLQPEDFGSYYCQHFWNTPPTFGAGTKLELK
